Measured values as given in the supplement of paper PMC6411743.
± gives the standard deviation of the averaged measurements. The entries are a selection whose mix differs from that of the whole data set. Small differences around the control level are noise.

Sequences of proteins named here, by UniProt entry; tags and fusion partners are left off. A change or cut given only in a name is not applied to a line headed by its entry.
UniProt O14777: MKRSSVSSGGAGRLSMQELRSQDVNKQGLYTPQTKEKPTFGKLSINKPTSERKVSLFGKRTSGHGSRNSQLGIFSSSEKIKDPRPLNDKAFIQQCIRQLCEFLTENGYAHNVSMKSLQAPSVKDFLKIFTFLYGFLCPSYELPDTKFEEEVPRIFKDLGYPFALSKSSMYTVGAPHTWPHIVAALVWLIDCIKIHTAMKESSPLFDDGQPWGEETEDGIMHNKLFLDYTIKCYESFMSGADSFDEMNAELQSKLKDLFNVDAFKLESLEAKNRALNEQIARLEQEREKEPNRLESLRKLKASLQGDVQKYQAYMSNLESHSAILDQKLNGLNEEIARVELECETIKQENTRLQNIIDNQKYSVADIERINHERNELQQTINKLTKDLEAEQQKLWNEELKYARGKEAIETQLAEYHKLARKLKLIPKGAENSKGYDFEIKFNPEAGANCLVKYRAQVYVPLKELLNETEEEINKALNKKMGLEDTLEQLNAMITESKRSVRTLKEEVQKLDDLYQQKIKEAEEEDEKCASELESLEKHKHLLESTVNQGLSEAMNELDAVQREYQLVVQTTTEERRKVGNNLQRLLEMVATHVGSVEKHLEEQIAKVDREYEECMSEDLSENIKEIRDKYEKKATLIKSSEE
UniProt O14647: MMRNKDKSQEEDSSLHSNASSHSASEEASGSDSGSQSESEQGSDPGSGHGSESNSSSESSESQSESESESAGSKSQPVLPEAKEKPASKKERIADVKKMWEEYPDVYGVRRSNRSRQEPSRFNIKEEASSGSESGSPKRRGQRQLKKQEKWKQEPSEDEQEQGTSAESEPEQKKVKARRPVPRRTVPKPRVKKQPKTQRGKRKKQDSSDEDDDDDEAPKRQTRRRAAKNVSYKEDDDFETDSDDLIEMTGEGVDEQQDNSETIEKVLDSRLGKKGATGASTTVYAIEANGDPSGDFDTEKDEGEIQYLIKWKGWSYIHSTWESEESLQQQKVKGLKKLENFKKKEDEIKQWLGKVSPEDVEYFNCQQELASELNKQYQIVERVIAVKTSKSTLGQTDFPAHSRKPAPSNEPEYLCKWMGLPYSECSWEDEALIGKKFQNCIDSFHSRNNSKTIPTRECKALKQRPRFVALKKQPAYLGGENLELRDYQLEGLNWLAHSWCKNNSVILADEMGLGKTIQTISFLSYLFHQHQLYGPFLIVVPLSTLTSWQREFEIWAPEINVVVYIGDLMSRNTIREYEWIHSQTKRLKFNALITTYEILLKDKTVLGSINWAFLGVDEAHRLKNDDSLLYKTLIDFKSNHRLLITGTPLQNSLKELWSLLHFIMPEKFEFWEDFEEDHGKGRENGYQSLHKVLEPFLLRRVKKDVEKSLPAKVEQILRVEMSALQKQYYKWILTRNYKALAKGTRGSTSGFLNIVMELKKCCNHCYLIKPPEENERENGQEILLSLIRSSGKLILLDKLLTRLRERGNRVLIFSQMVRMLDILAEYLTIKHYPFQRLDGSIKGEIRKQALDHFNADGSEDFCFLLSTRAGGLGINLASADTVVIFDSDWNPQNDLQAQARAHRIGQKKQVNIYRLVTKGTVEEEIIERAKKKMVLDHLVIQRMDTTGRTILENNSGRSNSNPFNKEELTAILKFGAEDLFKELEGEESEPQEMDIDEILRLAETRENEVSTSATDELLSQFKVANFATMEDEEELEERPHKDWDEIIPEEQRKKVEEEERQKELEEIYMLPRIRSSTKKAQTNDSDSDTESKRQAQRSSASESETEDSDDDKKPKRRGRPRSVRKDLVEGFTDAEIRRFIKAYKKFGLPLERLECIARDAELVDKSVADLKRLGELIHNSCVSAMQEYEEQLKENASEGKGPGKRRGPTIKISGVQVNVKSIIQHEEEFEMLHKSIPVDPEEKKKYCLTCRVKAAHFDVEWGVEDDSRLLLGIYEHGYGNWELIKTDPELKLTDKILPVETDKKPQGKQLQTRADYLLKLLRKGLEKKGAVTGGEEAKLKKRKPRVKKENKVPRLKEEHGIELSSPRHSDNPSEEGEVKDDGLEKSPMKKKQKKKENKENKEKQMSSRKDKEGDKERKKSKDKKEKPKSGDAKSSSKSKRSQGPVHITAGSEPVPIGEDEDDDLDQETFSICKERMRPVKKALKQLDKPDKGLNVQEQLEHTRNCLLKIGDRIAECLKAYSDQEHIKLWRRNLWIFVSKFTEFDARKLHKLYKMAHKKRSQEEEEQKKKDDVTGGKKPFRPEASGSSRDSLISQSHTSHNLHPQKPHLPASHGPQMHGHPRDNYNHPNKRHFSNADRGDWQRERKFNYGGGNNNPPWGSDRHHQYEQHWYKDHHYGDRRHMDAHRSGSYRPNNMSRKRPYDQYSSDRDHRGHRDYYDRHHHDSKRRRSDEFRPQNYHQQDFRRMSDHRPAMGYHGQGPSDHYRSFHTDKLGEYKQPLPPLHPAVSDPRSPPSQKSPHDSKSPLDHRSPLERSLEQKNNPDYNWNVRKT
UniProt O15381: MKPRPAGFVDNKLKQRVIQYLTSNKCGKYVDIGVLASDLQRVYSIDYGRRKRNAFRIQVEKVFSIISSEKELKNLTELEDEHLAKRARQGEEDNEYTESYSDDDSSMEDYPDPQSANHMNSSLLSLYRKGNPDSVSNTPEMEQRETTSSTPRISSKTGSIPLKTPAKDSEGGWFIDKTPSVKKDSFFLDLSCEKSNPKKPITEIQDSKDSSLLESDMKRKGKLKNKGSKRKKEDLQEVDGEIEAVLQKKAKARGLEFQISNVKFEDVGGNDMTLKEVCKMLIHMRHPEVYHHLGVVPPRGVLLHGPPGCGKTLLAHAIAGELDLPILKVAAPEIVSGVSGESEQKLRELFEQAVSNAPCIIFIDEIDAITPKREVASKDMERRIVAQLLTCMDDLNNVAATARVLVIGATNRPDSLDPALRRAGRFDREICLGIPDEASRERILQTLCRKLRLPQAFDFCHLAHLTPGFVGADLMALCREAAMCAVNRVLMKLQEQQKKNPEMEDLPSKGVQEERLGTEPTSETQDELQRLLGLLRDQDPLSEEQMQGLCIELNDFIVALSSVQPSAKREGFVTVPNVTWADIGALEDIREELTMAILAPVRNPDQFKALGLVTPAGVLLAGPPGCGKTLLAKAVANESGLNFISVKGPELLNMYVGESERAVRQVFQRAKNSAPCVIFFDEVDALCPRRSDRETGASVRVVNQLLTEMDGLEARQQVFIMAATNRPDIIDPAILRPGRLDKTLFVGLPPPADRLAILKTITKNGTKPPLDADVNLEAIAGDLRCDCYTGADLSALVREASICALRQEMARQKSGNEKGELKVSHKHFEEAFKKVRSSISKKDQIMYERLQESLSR
UniProt O43615: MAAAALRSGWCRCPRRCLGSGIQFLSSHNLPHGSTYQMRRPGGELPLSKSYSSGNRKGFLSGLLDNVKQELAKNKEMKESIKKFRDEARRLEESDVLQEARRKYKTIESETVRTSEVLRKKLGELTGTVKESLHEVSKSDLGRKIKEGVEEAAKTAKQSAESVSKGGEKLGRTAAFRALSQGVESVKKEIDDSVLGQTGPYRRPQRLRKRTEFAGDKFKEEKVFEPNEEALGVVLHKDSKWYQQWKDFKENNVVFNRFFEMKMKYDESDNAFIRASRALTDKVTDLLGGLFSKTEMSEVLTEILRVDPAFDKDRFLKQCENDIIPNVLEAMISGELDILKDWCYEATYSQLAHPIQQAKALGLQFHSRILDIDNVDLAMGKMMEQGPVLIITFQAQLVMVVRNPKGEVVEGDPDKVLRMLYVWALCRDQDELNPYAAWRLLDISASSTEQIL
UniProt O00186: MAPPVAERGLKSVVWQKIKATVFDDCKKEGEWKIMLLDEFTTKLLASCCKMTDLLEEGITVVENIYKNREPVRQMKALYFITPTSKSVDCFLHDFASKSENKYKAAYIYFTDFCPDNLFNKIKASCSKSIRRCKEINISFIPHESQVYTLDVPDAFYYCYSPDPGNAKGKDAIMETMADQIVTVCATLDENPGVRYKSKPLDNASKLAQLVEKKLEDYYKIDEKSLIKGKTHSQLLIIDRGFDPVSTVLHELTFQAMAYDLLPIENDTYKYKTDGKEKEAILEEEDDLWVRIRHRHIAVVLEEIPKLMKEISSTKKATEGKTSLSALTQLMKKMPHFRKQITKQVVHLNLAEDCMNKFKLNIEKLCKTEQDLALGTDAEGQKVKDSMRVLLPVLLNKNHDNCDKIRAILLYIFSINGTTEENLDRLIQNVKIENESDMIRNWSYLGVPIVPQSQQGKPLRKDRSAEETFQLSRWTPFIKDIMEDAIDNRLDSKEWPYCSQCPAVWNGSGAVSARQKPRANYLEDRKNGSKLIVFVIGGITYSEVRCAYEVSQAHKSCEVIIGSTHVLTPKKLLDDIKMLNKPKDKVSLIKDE
UniProt O15355: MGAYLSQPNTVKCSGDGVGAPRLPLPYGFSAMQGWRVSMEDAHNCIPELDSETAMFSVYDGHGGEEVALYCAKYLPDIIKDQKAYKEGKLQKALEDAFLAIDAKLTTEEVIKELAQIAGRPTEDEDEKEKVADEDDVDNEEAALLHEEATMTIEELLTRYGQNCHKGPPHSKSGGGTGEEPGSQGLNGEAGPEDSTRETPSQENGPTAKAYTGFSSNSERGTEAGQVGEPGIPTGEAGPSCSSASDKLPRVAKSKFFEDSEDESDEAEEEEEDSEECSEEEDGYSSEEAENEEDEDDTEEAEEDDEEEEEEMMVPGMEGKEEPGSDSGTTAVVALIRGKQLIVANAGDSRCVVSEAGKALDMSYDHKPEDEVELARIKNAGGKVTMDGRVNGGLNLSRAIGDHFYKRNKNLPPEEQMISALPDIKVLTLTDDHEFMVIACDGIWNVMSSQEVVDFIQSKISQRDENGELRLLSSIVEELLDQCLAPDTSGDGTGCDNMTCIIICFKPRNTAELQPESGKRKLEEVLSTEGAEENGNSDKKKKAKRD
UniProt O60232: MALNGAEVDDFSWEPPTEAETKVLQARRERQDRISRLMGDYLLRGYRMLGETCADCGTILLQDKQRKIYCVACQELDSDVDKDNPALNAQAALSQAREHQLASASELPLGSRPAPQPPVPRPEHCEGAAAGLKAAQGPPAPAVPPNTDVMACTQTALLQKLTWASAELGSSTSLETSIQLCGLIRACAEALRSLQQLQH
UniProt O43299: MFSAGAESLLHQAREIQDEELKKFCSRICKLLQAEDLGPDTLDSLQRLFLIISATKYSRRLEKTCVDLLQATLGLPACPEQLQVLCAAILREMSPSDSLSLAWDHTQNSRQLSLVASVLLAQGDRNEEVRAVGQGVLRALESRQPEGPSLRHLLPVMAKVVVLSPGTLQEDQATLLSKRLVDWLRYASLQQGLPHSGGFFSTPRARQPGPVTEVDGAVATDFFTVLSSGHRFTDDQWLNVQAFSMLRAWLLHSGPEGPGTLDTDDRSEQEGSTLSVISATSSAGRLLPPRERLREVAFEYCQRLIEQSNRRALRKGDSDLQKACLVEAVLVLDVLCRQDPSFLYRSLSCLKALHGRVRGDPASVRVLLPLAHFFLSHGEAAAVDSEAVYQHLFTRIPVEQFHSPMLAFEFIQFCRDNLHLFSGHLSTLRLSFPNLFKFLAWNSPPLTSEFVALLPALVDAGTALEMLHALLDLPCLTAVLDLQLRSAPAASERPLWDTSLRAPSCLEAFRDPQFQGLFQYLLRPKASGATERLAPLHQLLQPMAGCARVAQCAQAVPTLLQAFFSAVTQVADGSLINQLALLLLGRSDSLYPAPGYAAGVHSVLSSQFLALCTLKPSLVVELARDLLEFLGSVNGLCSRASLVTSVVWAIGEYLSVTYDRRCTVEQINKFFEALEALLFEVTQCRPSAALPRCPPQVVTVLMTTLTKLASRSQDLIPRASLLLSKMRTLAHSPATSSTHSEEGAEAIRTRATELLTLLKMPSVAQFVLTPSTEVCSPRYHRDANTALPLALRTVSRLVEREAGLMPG
UniProt O14908: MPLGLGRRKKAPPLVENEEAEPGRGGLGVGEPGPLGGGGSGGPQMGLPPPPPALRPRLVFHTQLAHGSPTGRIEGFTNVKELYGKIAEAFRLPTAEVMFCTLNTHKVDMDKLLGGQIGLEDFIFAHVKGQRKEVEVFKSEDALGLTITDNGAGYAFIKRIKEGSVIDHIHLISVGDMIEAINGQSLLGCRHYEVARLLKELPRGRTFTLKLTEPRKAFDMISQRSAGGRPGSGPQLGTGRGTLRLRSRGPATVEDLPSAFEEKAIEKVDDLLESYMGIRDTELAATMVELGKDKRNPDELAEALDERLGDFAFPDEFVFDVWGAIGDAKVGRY
UniProt O43583: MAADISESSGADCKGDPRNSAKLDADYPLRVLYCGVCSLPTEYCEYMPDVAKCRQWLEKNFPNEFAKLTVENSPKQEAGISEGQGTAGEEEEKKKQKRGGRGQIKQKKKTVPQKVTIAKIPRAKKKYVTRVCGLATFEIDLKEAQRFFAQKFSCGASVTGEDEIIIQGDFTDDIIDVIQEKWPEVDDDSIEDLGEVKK
UniProt O95182, whole entry: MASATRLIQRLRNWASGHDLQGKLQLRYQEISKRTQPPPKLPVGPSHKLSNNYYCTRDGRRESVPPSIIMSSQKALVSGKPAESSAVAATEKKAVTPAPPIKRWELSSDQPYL

Compound: Nc1ncnc2c1ncn2[C@@H]1O[C@H](COP(=O)(O)OP(=O)(O)OP(=O)(O)O)[C@@H](O)[C@H]1O [adenosine triphosphate]
Assay: NP40-soluble protein abundance relative to vehicle (solubility fold change) (ratio); higher = more soluble protein in presence of ATP
Procedure, shortened: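 Values are fold changes against the detergent-processed vehicle, based on vsn-normalised intensities. Jurkat crude lysate was treated at eight concentrations from 0.1 to 10 mM (10 min at room temperature, then 3 min at 37 °C), solubilised with 0.8% NP40 and benzonase, ultracentrifuged and analysed by TMT-labelled LC-MS/MS over three independent experiments.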

Target	NP40-soluble protein abundance (concentration: 0.1mM)	NP40-soluble protein abundance (concentration: 0.5mM)
UniProt O14787-2	0.944 ± 0.032	0.979 ± 0.087
UniProt O15226 and related entries	1.01 ± 0.034	0.9032 ± 0.0066
UniProt O43318-2|O43318	1 ± 0.0066	1.01 ± 0.038
TIMM8A (UniProt O60220)	0.91 ± 0.1	0.937 ± 0.082
NDC80 (UniProt O14777)	0.946 ± 0.06	0.936 ± 0.11
UniProt O00231 and related entries	0.998 ± 0.051	0.965 ± 0.023
KPNA3 (UniProt O00505)	1.04 ± 0.12	1.05 ± 0.091
LANCL1 (UniProt O43813)	1.01 ± 0.069	1.01 ± 0.028
UniProt O60271 and related entries	1.01 ± 0.033	0.995 ± 0.033
CHD2 (UniProt O14647)	1.03 ± 0.055	1.06 ± 0.11
AP3B1 (UniProt O00203)	0.97 ± 0.0099	0.971 ± 0.067
UniProt O43402	1.03 ± 0.045	0.98 ± 0.019
C2CD2L (UniProt O14523)	1.03 ± 0.094	1.049 ± 0.0027
AKR7A2 (UniProt O43488)	0.976 ± 0.015	0.9708 ± 0.0046
NVL (UniProt O15381)	1.08 ± 0.065	1.21 ± 0.076
TIMM44 (UniProt O43615)	0.993 ± 0.022	1.01 ± 0.051
STXBP3 (UniProt O00186)	1.05 ± 0.06	1.04 ± 0.054
MED14 (UniProt O60244)	0.976 ± 0.024	1 ± 0.044
PPM1G (UniProt O15355)	0.974 ± 0.039	0.976 ± 0.024
UniProt O00628 and related entries	1.1 ± 0.13	1.02 ± 0.14

Target	NP40-soluble protein abundance (concentration: 0.1mM)	NP40-soluble protein abundance (concentration: 0.5mM)
PGRMC1 (UniProt O00264)	0.89 ± 0.19	0.831 ± 0.22
UniProt O00330 and related entries	1.02 ± 0.15	1.13 ± 0.19
UniProt O14733 and related entries	1.08 ± 0.036	1.12 ± 0.024
CLGN (UniProt O14967)	1.03 ± 0.069	1.07 ± 0.055
SCD (UniProt O00767)	0.96 ± 0.04	0.947 ± 0.018
GMFG (UniProt O60234)	1.04 ± 0.051	1 ± 0.08
LSM1 (UniProt O15116)	0.944 ± 0.072	0.961 ± 0.12
UQCRQ (UniProt O14949)	0.858 ± 0.17	0.833 ± 0.23
UniProt O60232	0.919 ± 0.018	0.896 ± 0.047
SART1 (UniProt O43290)	1.02 ± 0.041	1.18 ± 0.05
UniProt O43299 and related entries	1.05 ± 0.046	0.964 ± 0.03
GIPC1 (UniProt O14908)	1.02 ± 0.04	0.995 ± 0.013
WASL (UniProt O00401)	1.02 ± 0.089	0.936 ± 0.069
DENR (UniProt O43583)	0.901 ± 0.065	0.869 ± 0.11
M0R0N0 and related entries (UniProt O95182)	0.93 ± 0.1	0.897 ± 0.081
SLC16A3 (UniProt O15427)	1.04 ± 0.045	1.02 ± 0.047
UniProt O00409 and related entries	0.997 ± 0.024	1.01 ± 0.095
POLR1C (UniProt O15160)	1.06 ± 0.061	1.03 ± 0.043
UniProt O14735 and related entries	0.986 ± 0.07	0.944 ± 0.013
PRPSAP2 (UniProt O60256)	1.02 ± 0.04	1.05 ± 0.019

Taken from above:
Under NP40-soluble protein abundance (concentration: 0.1mM), SCD (UniProt O00767) shows 0.96 ± 0.04
Under NP40-soluble protein abundance (concentration: 0.5mM), UniProt O00330 and related entries shows 1.13 ± 0.19
